PubChem BioAssay AID1053208 | Peter MacCallum Cancer Centre, 2014
The whole screen tested about 17,000 reagents; this is an unselected part. Over the whole deposit, 788 (4.7%) are marked active. 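Calls rest on z-score classes alone; an extra cut-off of viability at most 70% of control was not applied to them.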 Reagents against one gene are numbered here. Not all columns of the deposit are shown. Reagent sequences are not shown.

- Assay: 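Find knock-downs that sensitise mouse osteosarcoma cells to doxorubicin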 (primary screen)
- System: mouse osteosarcoma cells, early-passage culture from an engineered mouse model of fibroblastic bone tumour
- Reagent: siRNA pool against mouse genes, 40 nM
- Time to read-out: about 120 h (48 h before drug, then 72 h with drug)
- Challenge: doxorubicin 100 nM for 72 h, roughly 30-40% inhibitory dose
- Measurement: 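Viability read as ATP luminescence after 72 h of 100 nM doxorubicin or none, duplicate wells averaged, scaled to non-targeting siRNA, then expressed as robust z-scores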
- Scale: viability z-score with doxorubicin: higher = more viable cells under doxorubicin; viability z-score without drug: higher = more viable cells with knock-down alone
- Active means: 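Called active if knock-down leaves viability unchanged without drug (z within -2 to 2) but lowers it with doxorubicin (z at or under -2)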

For Lalba (lactalbumin, alpha), the entry reads combined z-score class no change with or without drug; viability z-score with doxorubicin -1.12; viability z-score without drug -0.17; inactive. Akap10 (A kinase anchor protein 10) gave combined z-score class no change with or without drug; viability z-score with doxorubicin -0.56; viability z-score without drug 1.18; inactive. Silencing of Mapk10 (mitogen-activated protein kinase 10) #1 resulted in: combined z-score class no change with or without drug; viability z-score with doxorubicin -1.35; viability z-score without drug -0.51; inactive. Mapk10 (mitogen-activated protein kinase 10) #2 showed combined z-score class high cell count with and without drug; viability z-score with doxorubicin 2.02; viability z-score without drug 2.53; inactive. Depletion of 5730453H04RIK came out at: combined z-score class high cell count with and without drug; viability z-score with doxorubicin 2.59; viability z-score without drug 2.7; inactive. Fabp6 (fatty acid binding protein 6) scored combined z-score class no change with or without drug; viability z-score with doxorubicin 1.12; viability z-score without drug -0.17; inactive.

Against Fgf5 (fibroblast growth factor 5), the entry reads combined z-score class no change with or without drug; viability z-score with doxorubicin -0.67; viability z-score without drug -0.34; inactive. Mrps23 (mitochondrial ribosomal protein S23) showed combined z-score class no change with or without drug; viability z-score with doxorubicin 0.79; viability z-score without drug -0.84; inactive. Lpin3 (lipin 3) showed combined z-score class low cell count without drug only; viability z-score with doxorubicin -1.12; viability z-score without drug -2.19; inactive. Silencing of Ppox (protoporphyrinogen oxidase) came out at: combined z-score class no change with or without drug; viability z-score with doxorubicin 0.67; viability z-score without drug -0.84; inactive. Kcns3 gave combined z-score class no change with or without drug; viability z-score with doxorubicin -0.9; viability z-score without drug -1.85; inactive. Knock-down of Cd46 (CD46 antigen, complement regulatory protein) resulted in: combined z-score class no change with or without drug; viability z-score with doxorubicin 0; viability z-score without drug -1.35; inactive.

Sorted by “viability z-score without drug” (highest first): 2 of the entries above.
Ppox (protoporphyrinogen oxidase) — combined z-score class = no change with or without drug; viability z-score with doxorubicin = 0.67; viability z-score without drug = -0.84; call = inactive
Kcns3 — combined z-score class = no change with or without drug; viability z-score with doxorubicin = -0.9; viability z-score without drug = -1.85; call = inactive
